The results in this text go back to article doi:10.1101/2023.12.12.571289.

By UniProt entry, the sequences of proteins in these tests, tags left out. Where a name states a change or a piece, a line headed by the entry shows the natural chain unless it says otherwise. Residues count along the entry.
UniProt Q16610, residues 20-540: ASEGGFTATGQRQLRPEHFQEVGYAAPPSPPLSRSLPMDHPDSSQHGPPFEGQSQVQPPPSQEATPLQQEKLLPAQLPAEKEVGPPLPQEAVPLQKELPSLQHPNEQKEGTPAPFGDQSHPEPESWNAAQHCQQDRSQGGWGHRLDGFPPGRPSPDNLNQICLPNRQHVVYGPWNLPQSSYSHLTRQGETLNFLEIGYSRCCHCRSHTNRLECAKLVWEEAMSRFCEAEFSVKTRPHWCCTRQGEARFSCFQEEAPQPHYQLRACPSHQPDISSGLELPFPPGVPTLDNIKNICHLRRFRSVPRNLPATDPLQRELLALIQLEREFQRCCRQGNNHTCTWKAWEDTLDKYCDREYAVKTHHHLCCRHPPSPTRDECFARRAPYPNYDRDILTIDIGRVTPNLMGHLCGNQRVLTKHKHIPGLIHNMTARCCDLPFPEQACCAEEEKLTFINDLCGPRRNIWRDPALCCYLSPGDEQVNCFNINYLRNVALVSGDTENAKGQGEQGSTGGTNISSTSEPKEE
UniProt Q9UHI8: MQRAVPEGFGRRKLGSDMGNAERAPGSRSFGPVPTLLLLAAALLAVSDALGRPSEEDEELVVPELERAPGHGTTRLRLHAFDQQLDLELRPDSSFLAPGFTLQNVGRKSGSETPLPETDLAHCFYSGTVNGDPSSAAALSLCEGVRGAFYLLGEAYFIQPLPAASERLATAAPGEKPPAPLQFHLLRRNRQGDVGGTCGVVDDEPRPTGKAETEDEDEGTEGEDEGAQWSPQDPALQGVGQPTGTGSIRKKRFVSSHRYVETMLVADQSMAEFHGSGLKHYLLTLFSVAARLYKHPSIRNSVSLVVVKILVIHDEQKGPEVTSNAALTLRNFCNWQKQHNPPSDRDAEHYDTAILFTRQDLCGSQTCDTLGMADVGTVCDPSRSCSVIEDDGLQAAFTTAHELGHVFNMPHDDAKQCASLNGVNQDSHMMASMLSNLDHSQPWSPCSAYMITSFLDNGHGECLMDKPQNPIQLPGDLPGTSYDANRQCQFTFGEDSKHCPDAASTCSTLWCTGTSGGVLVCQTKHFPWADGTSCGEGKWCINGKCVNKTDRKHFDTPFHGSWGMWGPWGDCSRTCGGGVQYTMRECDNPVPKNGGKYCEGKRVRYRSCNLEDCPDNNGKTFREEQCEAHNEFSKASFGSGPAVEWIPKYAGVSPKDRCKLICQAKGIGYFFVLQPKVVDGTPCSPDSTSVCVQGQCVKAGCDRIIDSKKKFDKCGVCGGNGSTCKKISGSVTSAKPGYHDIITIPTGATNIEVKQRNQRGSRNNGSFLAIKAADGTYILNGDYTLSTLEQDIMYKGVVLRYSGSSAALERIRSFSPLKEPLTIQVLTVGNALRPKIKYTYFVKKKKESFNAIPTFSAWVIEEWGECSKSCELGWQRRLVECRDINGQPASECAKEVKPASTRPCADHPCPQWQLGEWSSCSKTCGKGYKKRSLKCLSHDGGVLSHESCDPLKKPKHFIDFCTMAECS
UniProt P08253: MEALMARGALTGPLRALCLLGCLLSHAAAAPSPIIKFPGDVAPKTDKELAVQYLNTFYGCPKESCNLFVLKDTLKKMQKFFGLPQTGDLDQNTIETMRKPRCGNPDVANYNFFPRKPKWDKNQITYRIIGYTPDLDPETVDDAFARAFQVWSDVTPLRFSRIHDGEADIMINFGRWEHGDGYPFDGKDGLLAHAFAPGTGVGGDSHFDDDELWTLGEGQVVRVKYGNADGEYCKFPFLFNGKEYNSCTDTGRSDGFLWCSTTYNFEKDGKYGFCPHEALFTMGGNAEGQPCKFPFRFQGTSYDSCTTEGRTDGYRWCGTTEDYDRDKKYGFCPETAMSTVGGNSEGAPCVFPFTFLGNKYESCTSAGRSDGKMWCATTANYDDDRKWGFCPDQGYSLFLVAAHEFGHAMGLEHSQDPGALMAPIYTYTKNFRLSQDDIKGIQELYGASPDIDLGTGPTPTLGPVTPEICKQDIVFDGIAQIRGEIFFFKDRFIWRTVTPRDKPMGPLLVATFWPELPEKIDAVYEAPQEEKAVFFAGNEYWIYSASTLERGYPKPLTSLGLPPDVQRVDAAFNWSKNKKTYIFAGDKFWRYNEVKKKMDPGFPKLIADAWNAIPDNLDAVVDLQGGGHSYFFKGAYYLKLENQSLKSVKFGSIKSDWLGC
UniProt P14780: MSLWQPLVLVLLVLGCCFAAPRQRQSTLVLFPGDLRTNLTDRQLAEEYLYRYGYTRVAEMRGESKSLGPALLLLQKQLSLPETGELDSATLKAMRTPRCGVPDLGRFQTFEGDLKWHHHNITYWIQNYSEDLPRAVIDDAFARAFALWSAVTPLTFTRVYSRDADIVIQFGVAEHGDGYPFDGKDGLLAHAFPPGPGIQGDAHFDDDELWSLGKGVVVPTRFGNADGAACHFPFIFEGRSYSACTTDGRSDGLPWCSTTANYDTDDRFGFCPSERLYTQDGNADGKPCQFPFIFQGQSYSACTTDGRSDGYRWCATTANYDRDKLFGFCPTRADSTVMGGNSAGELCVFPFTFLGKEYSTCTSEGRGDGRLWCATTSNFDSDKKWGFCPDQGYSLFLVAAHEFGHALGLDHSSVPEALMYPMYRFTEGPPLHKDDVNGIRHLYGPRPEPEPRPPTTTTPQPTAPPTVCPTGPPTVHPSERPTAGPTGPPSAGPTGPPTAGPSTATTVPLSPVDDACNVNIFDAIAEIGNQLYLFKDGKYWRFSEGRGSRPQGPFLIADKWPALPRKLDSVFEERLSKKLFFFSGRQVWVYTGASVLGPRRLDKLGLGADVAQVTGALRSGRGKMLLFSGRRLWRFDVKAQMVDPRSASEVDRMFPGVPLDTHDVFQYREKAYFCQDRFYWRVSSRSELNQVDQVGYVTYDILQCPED

No constants are given. Whether binding was seen depends on the method and setting. A result given as binding can be weak or reduced; the word gives no strength.

The assay deals with recombinant ECM1 (rECM1) (UniProt Q16610). Briefly: pull-down.

Turning to “recombinant ADAMTS1 (from UniProt Q9UHI8) (enzyme)”, the binding result is reported as “binds”.

In the case of “recombinant MMP-2 (from UniProt P08253) (enzyme)”, the binding entry is “binds”.

As to “recombinant MMP-9 (from UniProt P14780) (enzyme)”, the binding entry is reported as “binds”.
